{"source": "patent US6890361B2", "about": "“Modification of printed and dyed materials” (Novozymes North America, Inc., priority 2001, dated 2005)", "test": "Washfastness (AATCC TM 61-2A) of disperse-dyed polyester fabric after afterclearing", "settings": "AATCC Chromatic Transference Scale 1~5, 1 heaviest color transfer, 5 no color transfer, afterclearing 20 minutes at 70° C."}
{"smiles": "[Na+].[OH-]", "note": "[sodium hydroxide]", "values": [{"measurement": "staining evaluation grade (Acetate)", "setting": "Acetate", "value": 3.5}, {"measurement": "staining evaluation grade (Nylon)", "setting": "Nylon", "value": 3.5}, {"measurement": "staining evaluation grade (silk)", "setting": "silk", "value": 3.0}]}
